Values from PubChem BioAssay AID686938 (Drosophila RNAi Screening Center, 2013).
In all, the deposit lists about 23,000 reagents; shown is an unselected part of those with a known target gene and a result. Over the whole deposit, 75 (0.33%) are marked active. 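Raw plate signals without normalisation; calls rest on plate z-scores that were not deposited; ratio present for only 364 wells.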 A plus sign joins genes that one reagent is predicted to hit. The record does not give: the dose of the treatment.

- Purpose: 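Knock-downs reducing store-operated calcium influx in Drosophila cells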 (primary screen)
- System: Drosophila S2R+ cells
- Reagents: long dsRNA against Drosophila genes, about 0.25 µg dsRNA per well, roughly 10,000 cells
- Duration: 5 days of knock-down before the calcium assay
- Treatment: thapsigargin (SERCA pump blocker) to empty calcium stores; entry signal taken 4 min after adding it
- Read-out: 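Per-well fluo-4 fluorescence in two replicates, unnormalised, measured in resting cells and 4 min after store depletion by the SERCA blocker thapsigargin; ratio of the two present in few wells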
- Direction: calcium entry signal: higher = stronger calcium signal after store depletion; entry to resting ratio: higher = more calcium entry relative to resting level; resting calcium signal: higher = higher resting calcium signal
- Call rule: 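Hit if the duplicate-averaged plate z-score for entry over resting signal is under −3; wells with weak total dye signal (Fmax z < −2) or more than 5 off-targets removed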
- Calls: active = strongly reduced calcium entry; inactive = no strong reduction

gene knocked down	PubChem SID	calcium entry signal, replicate 1 (fluorescence units)	calcium entry signal, replicate 2 (fluorescence units)	entry to resting ratio	resting calcium signal, replicate 1 (fluorescence units)	resting calcium signal, replicate 2 (fluorescence units)	Call
CG43439 + CG32388	SID104188653	3.99e7	4.38e7		2.08e7	2.04e7	inactive
CG11964	SID104194239	2.93e7	2.95e7		1.27e7	1.43e7	inactive
Yp2	SID104198524	3.79e7	3.89e7		1.80e7	1.67e7	inactive
mew	SID104198763	4.01e7	3.08e7		1.96e7	1.51e7	inactive
mew	SID104200144	3.83e7	5.57e7		1.94e7	2.57e7	inactive
CalpA	SID104187144	5.28e7	4.35e7		2.38e7	2.15e7	inactive
CR14117	SID104189913	2.30e7	3.62e7		1.22e7	1.49e7	inactive
Ras64B	SID104188481	4.17e7	4.01e7		2.02e7	1.84e7	inactive
KFase	SID104183050	2.22e7	2.18e7		1.09e7	1.05e7	inactive
CG15879	SID104188279	3.34e7	3.05e7		1.61e7	1.55e7	inactive
Csk	SID104192653	3.54e7	3.89e7		1.61e7	1.86e7	inactive
Csk	SID104195015	3.05e7	3.30e7		1.36e7	1.59e7	inactive
Csk	SID104202629	4.86e7	3.93e7		2.31e7	1.80e7	inactive
car	SID104200108	3.42e7	3.34e7		1.73e7	1.40e7	inactive
CG17726	SID104195047	5.70e7	2.34e7		2.63e7	1.26e7	inactive
CG34296	SID104193753	3.63e7	3.38e7		1.71e7	1.93e7	inactive
DUBAI	SID104187073	3.44e7	4.03e7		1.51e7	1.79e7	inactive
Dop2R	SID104200475	4.39e7	4.76e7		2.19e7	2.14e7	inactive
Dop2R	SID104200478	4.48e7	4.85e7		2.26e7	2.10e7	inactive
Tak1	SID104200182	4.02e7	4.01e7		1.93e7	1.92e7	inactive
Tak1	SID104200353	5.63e7	4.50e7		2.66e7	1.91e7	inactive
Tak1	SID104200354	5.38e7	5.08e7		2.34e7	2.07e7	inactive
CG14402	SID104182178	4.25e7	5.96e7		2.36e7	2.56e7	inactive
CG13126	SID104182014	3.69e7	4.70e7		1.67e7	1.88e7	inactive
Clamp	SID104183510	3.73e7			1.94e7		inactive
Clamp	SID104201363	3.11e7	2.72e7		1.80e7	1.54e7	inactive
CG42450	SID104199814	4.85e7	4.25e7		2.23e7	1.71e7	inactive
CG42450	SID104202122	3.76e7	3.56e7		2.21e7	1.56e7	inactive

Sorted by “calcium entry signal, replicate 1 (fluorescence units)” (lowest first): 11 of the entries above.
gene knocked down	PubChem SID	calcium entry signal, replicate 1 (fluorescence units)	calcium entry signal, replicate 2 (fluorescence units)	entry to resting ratio	resting calcium signal, replicate 1 (fluorescence units)	resting calcium signal, replicate 2 (fluorescence units)	Call
Clamp	SID104201363	3.11e7	2.72e7		1.80e7	1.54e7	inactive
DUBAI	SID104187073	3.44e7	4.03e7		1.51e7	1.79e7	inactive
CG34296	SID104193753	3.63e7	3.38e7		1.71e7	1.93e7	inactive
CG13126	SID104182014	3.69e7	4.70e7		1.67e7	1.88e7	inactive
Clamp	SID104183510	3.73e7			1.94e7		inactive
Tak1	SID104200182	4.02e7	4.01e7		1.93e7	1.92e7	inactive
CG14402	SID104182178	4.25e7	5.96e7		2.36e7	2.56e7	inactive
Dop2R	SID104200475	4.39e7	4.76e7		2.19e7	2.14e7	inactive
Dop2R	SID104200478	4.48e7	4.85e7		2.26e7	2.10e7	inactive
Tak1	SID104200354	5.38e7	5.08e7		2.34e7	2.07e7	inactive
Tak1	SID104200353	5.63e7	4.50e7		2.66e7	1.91e7	inactive

Next records follow.
gene knocked down	PubChem SID	calcium entry signal, replicate 1 (fluorescence units)	calcium entry signal, replicate 2 (fluorescence units)	entry to resting ratio	resting calcium signal, replicate 1 (fluorescence units)	resting calcium signal, replicate 2 (fluorescence units)	Call
Nipsnap	SID104199961	4.12e7	4.24e7		1.97e7	1.96e7	inactive
CG34230	SID104185109	5.07e7	2.59e7		2.60e7	1.20e7	inactive
CG15386 + CG42371	SID104180192	3.94e7	3.92e7		1.71e7	1.65e7	inactive
CG9643	SID104180514	1.96e7	2.21e7		1.06e7	1.15e7	inactive
CG10761	SID104197545	3.11e7	5.16e7		1.67e7	2.25e7	inactive
Cpr65Av	SID104189519	2.90e7	5.85e7		1.40e7	2.17e7	inactive
CG10051	SID104185751	3.48e7	4.01e7		1.51e7	1.96e7	inactive
Acyp2	SID104195128	2.94e7	5.25e7		1.45e7	6.41e7	inactive
CG33467	SID104185317	4.01e7	5.35e7		1.75e7	2.37e7	inactive
CG33467	SID104202054	4.39e7	3.55e7		2.62e7	1.60e7	inactive
CG7766	SID104198216	3.15e7	3.20e7		1.36e7	1.51e7	inactive
7B2	SID104191783	3.28e7	2.47e7		1.73e7	1.34e7	inactive
Obp22a	SID104179880	3.39e7	3.59e7		1.83e7	1.71e7	inactive
CG13157	SID104186074	3.05e7	4.28e7		1.62e7	1.86e7	inactive
CG6435	SID104186779	2.86e7	2.98e7		1.21e7	1.45e7	inactive
RhoGAP102A	SID104196902	3.80e7	3.78e7		1.86e7	1.56e7	inactive
RhoGAP102A	SID104196937	3.77e7	5.63e7	2.1	1.82e7	1.97e7	inactive
LysE	SID104188467	2.63e7	2.81e7		1.36e7	1.35e7	inactive
Spt-I	SID104186652	2.33e7	3.20e7		1.27e7	1.43e7	inactive
SNRPG	SID104199999	1.93e7	2.50e7		1.21e7	1.30e7	inactive
CG7239	SID104182830	3.94e7			2.24e7		inactive
CG7239	SID104202470	5.33e7	3.12e7		2.36e7	1.36e7	inactive
CG34320 (retired record)	SID104197474	4.72e7	3.49e7		2.17e7	1.58e7	inactive
CG12374	SID104185935	3.85e7	3.68e7		1.95e7	1.72e7	inactive
CG4282	SID104186657	3.61e7	3.75e7		1.70e7	1.75e7	inactive
CG12948	SID104194368	4.18e7	3.67e7		2.08e7	1.87e7	inactive
pcx	SID104197978	3.45e7	6.57e7	2	1.71e7	2.86e7	inactive
pcx	SID104197979	3.36e7	6.49e7	2	1.71e7	2.93e7	inactive
pcx	SID104197980	4.32e7	6.30e7	2	2.12e7	2.86e7	inactive
pcx	SID104197981	5.52e7	5.80e7	2	2.71e7	2.56e7	inactive
pcx	SID104197982	5.65e7	5.50e7	2.1	2.68e7	2.38e7	inactive
pcx	SID104198608	5.05e7	4.43e7		2.15e7	2.05e7	inactive
brv2	SID104190018	3.64e7	4.46e7		1.76e7	2.10e7	inactive
DEF8	SID104189632	4.46e7	3.89e7		3.10e7	1.63e7	inactive
Oatp58Da	SID104184157	3.70e7	4.41e7		1.85e7	2.02e7	inactive
CG14684	SID104194699	4.03e7	3.29e7		2.01e7	1.74e7	inactive
Rpn11	SID104183214	2.29e7	1.79e7		1.63e7	1.23e7	inactive
CG7888	SID104190718	4.33e7	3.10e7		2.80e7	1.30e7	inactive
hyd	SID104196763	2.98e7	2.81e7		1.47e7	1.49e7	inactive
Ir76a	SID104190779	3.21e7	3.72e7		1.46e7	2.24e7	inactive
Scp1	SID104200591	3.48e7	3.68e7		1.65e7	1.62e7	inactive
Scp1	SID104200595	3.59e7	4.41e7		1.54e7	1.90e7	inactive
Scp1	SID104200598	4.27e7	4.54e7		2.24e7	2.07e7	inactive
CG12360 (retired record)	SID104194297	2.53e7	5.04e7		1.31e7	8.84e7	inactive
HP6	SID104180263	2.86e7	2.83e7		1.42e7	1.36e7	inactive
SLO2	SID104186004	2.40e7	4.60e7		1.61e7	1.97e7	inactive
SLO2	SID104186006	4.17e7	3.96e7		1.79e7	1.69e7	inactive
SLO2	SID104186008	4.30e7	3.31e7		1.89e7	1.64e7	inactive
SLO2	SID104186010	4.43e7	4.12e7		2.06e7	1.86e7	inactive
SLO2	SID104186011	3.04e7	4.39e7		1.91e7	1.85e7	inactive
SLO2	SID104202582	3.08e7	2.69e7		1.57e7	1.21e7	inactive
